Laboratory results from patent US20260098096A1.
No constants are given. Whether binding was seen depends on the method and setting. Some entries that bind do so weakly or less than the wild type.

Amino acid sequences for entries named in this document (tags omitted). A change or cut given only in a name is not applied to a line headed by its entry.
UniProt P51685: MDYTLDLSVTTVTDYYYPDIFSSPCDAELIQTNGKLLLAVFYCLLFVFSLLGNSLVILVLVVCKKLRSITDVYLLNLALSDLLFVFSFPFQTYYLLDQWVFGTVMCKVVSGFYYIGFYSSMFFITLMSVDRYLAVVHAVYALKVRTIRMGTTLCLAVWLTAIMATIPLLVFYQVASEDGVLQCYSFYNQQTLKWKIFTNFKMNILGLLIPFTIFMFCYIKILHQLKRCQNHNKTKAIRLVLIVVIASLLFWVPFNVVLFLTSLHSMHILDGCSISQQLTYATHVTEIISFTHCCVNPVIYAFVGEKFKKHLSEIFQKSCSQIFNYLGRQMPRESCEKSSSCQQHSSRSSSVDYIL

Target: Human CCR8 (human) (UniProt P51685)
Assay: flow cytometry on hCCR8-L1.2 transfected cells

- binding: binds
B1: Chimeric 2H8 (antibody, human IgG1, kappa, V domains shown)
VH: EVQLQQSGPELVKPGASVKMSCKASGYTFTDYNMHWVKQSHGKSLEWIGYVNPNNGGTSYNQKFKGKATLTVNKSSSTAYMELRSLTSEDSAVYYCARWVLRRNFAYWGQGTLVTVSA
VL: DIVMTQSHKFMSTSVGDRVSITCKASQDVNTAVAWYQQKPGQSPKLLIYWASTRHTGVPDRFTGSGSGTDYTLTISSVQAEDLALYYCQQHYRNPYTFGGGTKLEIKR
